{"source": "paper doi:10.1101/2020.10.02.323600", "binders": {"B1": {"name": "P. falciparum multi-drug resistance protein 1 (protein, UniProt Q7K6A5 1-1419)", "chain": "MGKEQKEKKDGNLSIKEEVEKELNKKSTAELFRKIKNEKISFFLPFKCLPAQHRKLLFISFVCAVLSGGTLPFFISVFGVILKNMNLGDDINPIILSLVSIGLVQFILSMISSYCMDVITSKILKTLKLEYLRSVFYQDGQFHDNNPGSKLRSDLDFYLEQVSSGIGTKFITIFTYASSFLGLYIWSLIKNARLTLCITCVFPLIYVCGVICNKKVKLNKKTSLLYNNNTMSIIEEALMGIRTVASYCGEKTILNKFNLSETFYSKYILKANFVEALHIGLINGLILVSYAFGFWYGTRIIINSATNQYPNNDFNGASVISILLGVLISMFMLTIILPNITEYMKALEATNSLYEIINRKPLVENNDDGETLPNIKKIEFKNVRFHYDTRKDVEIYKDLSFTLKEGKTYAFVGESGCGKSTILKLIERLYDPTEGDIIVNDSHNLKDINLKWWRSKIGVVSQDPLLFSNSIKNNIKYSLYSLKDLEAMENYYEENTNDTYENKNFSLISNSMTSNELLEMKKEYQTIKDSDVVDVSKKVLIHDFVSSLPDKYDTLVGSNASKLSGGQKQRISIARAIMRNPKILILDEATSSLDNKSEYLVQKTINNLKGNENRITIIIAHRLSTIRYANTIFVLSNRERSDNNNNNNNDDNNNNNNNNNNKINNEGSYIIEQGTHDSLMKNKNGIYHLMINNQKISSNKSSNNGNDNGSDNKSSAYKDSDTGNDADNMNSLSIHENENISNNRNCKNTAENEKEEKVPFFKRMFRRKKKAPNNLRIIYKEIFSYKKDVTIIFFSILVAGGLYPVFALLYARYVSTLFDFANLEYNSNKYSIYILLIAIAMFISETLKNYYNNKIGEKVEKTMKRRLFENILYQEMSFFDQDKNTPGVLSAHINRDVHLLKTGLVNNIVIFSHFIMLFLVSMVMSFYFCPIVAAVLTFIYFINMRVFAVRARLTKSKEIEKKENMSSGVFAFSSDDEMFKDPSFLIQEAFYNMHTVINYGLEDYFCNLIEKAIDYKNKGQKRRIIVNAALWGFSQSAQLFINSFAYWFGSFLIKRGTILVDDFMKSLFTFIFTGSYAGKLMSLKGDSENAKLSFEKYYPLMIRKSNIDVRDDGGIRINKNLIKGKVDIKDVNFRYISRPNVPIYKNLSFTCDSKKTTAIVGETGSGKSTFMNLLLRFYDLKNDHIILKNDMTNFQDYQNNNNNSLVLKNVNEFSNQSGSAEDYTVFNNNGEILLDDINICDYNLRDLRNLFSIVSQEPMLFNMSIYENIKFGREDATLEDVKRVSKFAAIDEFIESLPNKYDTNVGPYGKSLSGGQKQRIAIARALLREPKILLLDEATSSLDSNSEKLIEKTIVDIKDKADKTIITIAHRIASIKRSDKIVVFNNPDRNGTFVQSHGTHDELLSAQDGIYKKYVKLAK"}}, "biological_target": "GFP/PfAtg18 (Plasmodium falciparum) (UniProt Q8IJR6)", "assay": "affinity purification with mass spectrometry", "note": "No constants are given. Whether binding was seen depends on the method and setting. In cells and extracts the contact can be indirect. These calls come from enrichment with a bait or labelling near it, and not all partners need be listed."}
{"binder": "B1", "values": [{"measurement": "binding", "result": "binds"}]}
